Test results: the supplement of paper PMC7666118
The list shows a part of the results.

Sequences of proteins named here, by UniProt entry; tags and fusion partners are left off. A change or cut given only in a name is not applied to a line headed by its entry.
UniProt Q92599: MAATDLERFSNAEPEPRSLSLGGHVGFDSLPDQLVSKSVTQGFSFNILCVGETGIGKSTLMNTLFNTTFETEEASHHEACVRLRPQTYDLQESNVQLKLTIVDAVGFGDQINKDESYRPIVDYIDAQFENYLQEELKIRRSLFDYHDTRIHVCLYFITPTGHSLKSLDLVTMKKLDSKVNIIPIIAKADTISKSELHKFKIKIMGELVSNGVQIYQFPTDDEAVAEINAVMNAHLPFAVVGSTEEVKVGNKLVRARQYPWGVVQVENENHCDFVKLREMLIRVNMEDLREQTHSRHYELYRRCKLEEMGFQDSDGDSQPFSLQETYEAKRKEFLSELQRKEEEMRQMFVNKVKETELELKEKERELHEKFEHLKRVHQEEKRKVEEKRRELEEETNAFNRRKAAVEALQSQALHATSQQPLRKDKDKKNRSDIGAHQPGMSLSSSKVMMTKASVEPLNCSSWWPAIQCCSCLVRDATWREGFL
UniProt Q9H4P4: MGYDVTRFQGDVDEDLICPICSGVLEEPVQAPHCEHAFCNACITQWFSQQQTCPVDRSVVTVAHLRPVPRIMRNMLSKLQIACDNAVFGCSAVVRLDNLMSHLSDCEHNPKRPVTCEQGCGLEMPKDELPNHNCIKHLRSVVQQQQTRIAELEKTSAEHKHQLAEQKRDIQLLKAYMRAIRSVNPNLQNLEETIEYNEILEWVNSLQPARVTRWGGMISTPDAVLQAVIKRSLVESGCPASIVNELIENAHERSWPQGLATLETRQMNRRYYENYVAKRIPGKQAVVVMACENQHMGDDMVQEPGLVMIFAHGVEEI
UniProt Q9UBV2: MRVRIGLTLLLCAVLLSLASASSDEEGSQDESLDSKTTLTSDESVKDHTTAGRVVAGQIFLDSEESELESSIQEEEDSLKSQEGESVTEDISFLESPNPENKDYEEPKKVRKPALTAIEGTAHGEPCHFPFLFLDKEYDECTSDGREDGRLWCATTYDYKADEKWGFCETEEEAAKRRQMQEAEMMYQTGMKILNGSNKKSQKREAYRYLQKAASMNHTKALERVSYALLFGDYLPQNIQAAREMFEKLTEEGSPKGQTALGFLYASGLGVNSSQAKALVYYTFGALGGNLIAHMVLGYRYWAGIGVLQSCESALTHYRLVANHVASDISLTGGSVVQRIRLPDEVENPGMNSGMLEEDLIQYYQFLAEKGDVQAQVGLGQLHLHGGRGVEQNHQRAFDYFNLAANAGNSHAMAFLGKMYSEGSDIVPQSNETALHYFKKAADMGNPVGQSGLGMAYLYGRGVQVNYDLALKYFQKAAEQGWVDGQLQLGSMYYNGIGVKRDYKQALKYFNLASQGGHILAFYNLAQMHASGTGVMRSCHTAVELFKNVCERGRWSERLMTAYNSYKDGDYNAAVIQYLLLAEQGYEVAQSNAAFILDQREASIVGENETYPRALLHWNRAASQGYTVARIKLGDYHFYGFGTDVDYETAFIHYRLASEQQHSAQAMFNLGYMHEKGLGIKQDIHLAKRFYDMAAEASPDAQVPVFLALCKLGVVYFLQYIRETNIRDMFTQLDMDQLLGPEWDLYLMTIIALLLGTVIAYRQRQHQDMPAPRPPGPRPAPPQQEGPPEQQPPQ
UniProt Q14684: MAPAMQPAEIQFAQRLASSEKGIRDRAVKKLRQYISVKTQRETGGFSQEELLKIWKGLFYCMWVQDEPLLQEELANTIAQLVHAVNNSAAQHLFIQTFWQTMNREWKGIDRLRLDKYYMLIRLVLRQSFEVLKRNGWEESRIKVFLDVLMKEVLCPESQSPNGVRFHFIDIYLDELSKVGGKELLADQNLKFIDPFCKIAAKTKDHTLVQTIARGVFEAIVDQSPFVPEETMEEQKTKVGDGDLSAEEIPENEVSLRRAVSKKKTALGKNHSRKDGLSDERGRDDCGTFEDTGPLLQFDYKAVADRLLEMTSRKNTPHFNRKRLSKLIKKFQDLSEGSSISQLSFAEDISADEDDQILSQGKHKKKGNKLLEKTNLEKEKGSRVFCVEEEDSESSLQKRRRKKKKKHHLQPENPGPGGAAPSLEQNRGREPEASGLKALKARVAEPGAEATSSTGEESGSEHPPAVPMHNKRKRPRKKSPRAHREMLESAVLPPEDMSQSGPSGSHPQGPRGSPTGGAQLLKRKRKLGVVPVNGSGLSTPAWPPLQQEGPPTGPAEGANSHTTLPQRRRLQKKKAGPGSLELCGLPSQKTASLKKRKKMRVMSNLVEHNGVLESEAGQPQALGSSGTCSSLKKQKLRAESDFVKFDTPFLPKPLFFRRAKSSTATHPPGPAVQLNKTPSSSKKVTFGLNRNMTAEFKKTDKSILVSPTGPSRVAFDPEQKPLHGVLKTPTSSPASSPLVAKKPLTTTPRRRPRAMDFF
UniProt Q99470: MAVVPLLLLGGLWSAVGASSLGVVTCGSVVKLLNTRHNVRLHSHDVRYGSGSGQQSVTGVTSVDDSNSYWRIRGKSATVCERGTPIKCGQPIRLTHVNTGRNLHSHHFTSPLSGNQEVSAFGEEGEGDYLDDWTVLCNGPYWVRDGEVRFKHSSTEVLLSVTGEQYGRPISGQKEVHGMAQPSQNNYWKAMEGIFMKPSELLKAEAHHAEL
UniProt Q7L099: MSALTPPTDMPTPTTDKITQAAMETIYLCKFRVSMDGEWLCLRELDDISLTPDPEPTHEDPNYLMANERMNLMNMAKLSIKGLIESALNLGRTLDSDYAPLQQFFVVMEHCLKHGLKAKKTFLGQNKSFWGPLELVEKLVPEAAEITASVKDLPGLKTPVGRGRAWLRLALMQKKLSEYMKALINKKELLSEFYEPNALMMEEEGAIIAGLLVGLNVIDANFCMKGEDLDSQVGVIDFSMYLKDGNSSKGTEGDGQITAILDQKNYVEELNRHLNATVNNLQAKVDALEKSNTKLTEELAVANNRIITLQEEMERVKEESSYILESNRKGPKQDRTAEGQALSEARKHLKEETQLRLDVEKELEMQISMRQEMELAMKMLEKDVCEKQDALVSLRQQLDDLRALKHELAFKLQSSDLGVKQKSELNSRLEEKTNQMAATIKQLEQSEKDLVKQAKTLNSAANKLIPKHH
UniProt P49247: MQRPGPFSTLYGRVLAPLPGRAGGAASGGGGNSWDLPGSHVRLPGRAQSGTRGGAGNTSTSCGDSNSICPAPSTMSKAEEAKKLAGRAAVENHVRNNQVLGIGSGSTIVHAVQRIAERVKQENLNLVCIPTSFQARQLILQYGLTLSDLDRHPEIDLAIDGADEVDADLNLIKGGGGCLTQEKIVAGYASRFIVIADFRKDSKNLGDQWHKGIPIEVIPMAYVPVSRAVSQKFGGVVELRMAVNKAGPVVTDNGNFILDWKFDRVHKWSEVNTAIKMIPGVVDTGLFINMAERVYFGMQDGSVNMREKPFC
UniProt O75446: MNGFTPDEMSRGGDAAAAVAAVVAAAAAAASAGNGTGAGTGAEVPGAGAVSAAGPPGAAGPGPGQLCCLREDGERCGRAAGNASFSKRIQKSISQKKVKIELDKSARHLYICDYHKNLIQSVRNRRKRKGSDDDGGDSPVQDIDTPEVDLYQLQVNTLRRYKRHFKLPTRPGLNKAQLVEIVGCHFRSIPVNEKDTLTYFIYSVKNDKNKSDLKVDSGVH
UniProt Q96T21: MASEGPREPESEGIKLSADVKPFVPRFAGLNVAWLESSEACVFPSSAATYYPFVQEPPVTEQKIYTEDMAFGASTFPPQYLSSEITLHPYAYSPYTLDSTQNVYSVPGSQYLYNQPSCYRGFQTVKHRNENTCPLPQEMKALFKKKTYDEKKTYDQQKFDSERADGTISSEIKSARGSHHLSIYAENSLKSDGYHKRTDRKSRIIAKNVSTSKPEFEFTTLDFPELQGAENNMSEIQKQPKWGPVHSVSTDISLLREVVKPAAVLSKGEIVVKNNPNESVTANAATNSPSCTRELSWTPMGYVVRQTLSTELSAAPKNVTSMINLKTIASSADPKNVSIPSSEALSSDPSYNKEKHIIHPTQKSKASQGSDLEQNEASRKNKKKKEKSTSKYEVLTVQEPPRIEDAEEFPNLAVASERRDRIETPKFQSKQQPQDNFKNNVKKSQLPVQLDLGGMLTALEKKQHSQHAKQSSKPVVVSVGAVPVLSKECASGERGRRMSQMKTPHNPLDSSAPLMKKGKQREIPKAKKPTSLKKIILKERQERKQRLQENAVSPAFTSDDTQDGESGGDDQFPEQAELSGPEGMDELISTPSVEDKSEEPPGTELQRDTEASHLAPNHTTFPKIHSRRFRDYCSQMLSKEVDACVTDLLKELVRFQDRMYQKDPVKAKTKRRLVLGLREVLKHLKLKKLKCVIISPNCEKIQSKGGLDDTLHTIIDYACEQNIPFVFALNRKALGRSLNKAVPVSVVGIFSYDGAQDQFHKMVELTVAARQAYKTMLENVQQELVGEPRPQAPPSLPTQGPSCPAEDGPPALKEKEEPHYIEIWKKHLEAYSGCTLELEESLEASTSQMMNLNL
UniProt Q96P16: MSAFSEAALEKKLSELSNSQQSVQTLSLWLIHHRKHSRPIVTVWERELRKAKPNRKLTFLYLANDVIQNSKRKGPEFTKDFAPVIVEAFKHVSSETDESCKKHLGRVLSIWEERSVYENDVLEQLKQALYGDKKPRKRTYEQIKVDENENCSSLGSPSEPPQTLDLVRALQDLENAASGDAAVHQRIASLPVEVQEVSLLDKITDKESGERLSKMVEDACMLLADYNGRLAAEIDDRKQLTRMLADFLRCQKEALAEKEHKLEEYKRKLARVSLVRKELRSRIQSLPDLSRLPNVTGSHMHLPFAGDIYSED
UniProt Q9BWH6: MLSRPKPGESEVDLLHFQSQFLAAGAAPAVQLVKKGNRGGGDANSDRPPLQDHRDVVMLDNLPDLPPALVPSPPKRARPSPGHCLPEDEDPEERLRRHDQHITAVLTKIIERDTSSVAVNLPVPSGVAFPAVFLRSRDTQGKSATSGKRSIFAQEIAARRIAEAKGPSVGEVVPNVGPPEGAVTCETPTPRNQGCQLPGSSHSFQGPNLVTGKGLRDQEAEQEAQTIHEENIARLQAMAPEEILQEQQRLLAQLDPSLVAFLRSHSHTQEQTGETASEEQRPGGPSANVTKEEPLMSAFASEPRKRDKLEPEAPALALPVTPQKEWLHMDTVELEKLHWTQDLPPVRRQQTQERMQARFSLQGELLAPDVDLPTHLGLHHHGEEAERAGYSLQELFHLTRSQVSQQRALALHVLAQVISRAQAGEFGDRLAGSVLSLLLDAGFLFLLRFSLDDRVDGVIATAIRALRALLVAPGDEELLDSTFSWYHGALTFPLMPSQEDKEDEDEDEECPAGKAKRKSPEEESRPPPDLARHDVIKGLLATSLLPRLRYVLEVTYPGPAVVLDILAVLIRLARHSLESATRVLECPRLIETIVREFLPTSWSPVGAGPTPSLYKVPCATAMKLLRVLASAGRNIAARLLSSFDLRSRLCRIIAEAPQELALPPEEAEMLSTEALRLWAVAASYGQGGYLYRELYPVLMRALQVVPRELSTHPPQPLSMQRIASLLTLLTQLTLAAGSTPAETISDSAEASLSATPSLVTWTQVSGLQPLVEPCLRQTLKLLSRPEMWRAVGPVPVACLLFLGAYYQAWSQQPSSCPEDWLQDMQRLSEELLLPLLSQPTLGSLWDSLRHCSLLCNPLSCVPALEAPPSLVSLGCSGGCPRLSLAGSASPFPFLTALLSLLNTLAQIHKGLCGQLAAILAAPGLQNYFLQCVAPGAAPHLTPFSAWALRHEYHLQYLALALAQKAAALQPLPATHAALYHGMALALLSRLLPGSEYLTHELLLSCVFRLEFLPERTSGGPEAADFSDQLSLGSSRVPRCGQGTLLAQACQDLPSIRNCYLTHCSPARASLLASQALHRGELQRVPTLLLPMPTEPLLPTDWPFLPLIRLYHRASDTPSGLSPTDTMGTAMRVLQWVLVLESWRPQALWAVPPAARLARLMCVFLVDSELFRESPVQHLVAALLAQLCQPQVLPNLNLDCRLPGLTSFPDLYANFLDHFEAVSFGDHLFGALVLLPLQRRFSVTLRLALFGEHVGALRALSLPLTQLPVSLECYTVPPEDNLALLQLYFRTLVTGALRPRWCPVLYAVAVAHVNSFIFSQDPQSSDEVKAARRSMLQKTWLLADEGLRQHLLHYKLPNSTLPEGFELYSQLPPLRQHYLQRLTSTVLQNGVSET
UniProt Q9UGK8: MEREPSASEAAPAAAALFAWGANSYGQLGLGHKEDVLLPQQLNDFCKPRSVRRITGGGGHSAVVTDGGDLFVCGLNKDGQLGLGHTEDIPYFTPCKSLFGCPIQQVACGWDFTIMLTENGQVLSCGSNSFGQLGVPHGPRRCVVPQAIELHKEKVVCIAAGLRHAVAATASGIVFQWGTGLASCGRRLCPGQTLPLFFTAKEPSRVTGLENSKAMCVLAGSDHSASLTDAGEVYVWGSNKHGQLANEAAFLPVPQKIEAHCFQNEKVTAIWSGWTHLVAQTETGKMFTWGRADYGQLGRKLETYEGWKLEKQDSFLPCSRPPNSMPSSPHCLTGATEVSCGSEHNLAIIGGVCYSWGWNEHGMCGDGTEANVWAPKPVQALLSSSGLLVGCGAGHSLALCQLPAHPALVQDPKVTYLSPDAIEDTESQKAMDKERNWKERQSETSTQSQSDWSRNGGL

compound: COc1ccc(Cn2ccc3cc(C)c(C(=O)NO)cc32)cc1; experiment: dose-dependent thermal stabilisation call (2D-TPP, DLPTP, 10% FDR) (binary (1 = stabilised)); higher = stabilised by the compound; conditions: system: HL-60 intact cells; concentration range 0.04-10 µM
Procedure: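 2D thermal proteome profiling in intact HL-60 cells treated with BRD-3811 (0, 0.04, 0.29, 2, 10 uM) for 90 min at 37 C, then heated 3 min at one of 12 temperatures (42-63.9 C). Soluble protein was quantified by TMT10 MS. The value is the DLPTP call of the paper: dose-dependent thermal stabilisation over all temperatures at 10% FDR (F-test of a dose-response against a flat model); one experiment, one call per tested protein.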

Row | Target | dose-dependent thermal stabilisation call
1 | SEPT8 (UniProt Q92599) | inactive: 0
2 | RNF41 (UniProt Q9H4P4) | inactive: 0
3 | RP3-402G11 5 | inactive: 0
4 | SEL1L (UniProt Q9UBV2) | inactive: 0
5 | RSBN1 (UniProt Q5VWQ0) | inactive: 0
6 | SAR1A (UniProt Q9NR31) | inactive: 0
7 | SEPHS1 (UniProt P49903) | inactive: 0
8 | RSF1 (UniProt Q96T23) | inactive: 0
9 | RNPS1 (UniProt Q15287) | inactive: 0
10 | RRP1B (UniProt Q14684) | inactive: 0
11 | RPS24 (UniProt P62847) | inactive: 0
12 | SDF2 (UniProt Q99470) | inactive: 0
13 | RRP7A (UniProt Q9Y3A4) | inactive: 0
14 | RPL14 (UniProt P50914) | inactive: 0
15 | RUFY3 (UniProt Q7L099) | inactive: 0
16 | RPLP1 (UniProt P05386) | inactive: 0
17 | RPIA (UniProt P49247) | inactive: 0
18 | SELK (UniProt Q9Y6D0) | inactive: 0
19 | RPP30 (UniProt P78346) | inactive: 0
20 | RPS9 (UniProt P46781) | inactive: 0

Another view of part of the listing above:
Row	Target	dose-dependent thermal stabilisation call
3	RP3-402G11 5	inactive: 0
4	SEL1L (UniProt Q9UBV2)	inactive: 0

Next records:

Row | Target | dose-dependent thermal stabilisation call
21 | RTTN (UniProt Q86VV8) | inactive: 0
22 | SEPT7 (UniProt Q16181) | inactive: 0
23 | SAP30 (UniProt O75446) | inactive: 0
24 | SAP30BP (UniProt Q9UHR5) | inactive: 0
25 | RPS7 (UniProt P62081) | inactive: 0
26 | SECISBP2 (UniProt Q96T21) | inactive: 0
27 | RPL13 (UniProt P26373) | active: 1
28 | SEC23IP (UniProt Q9Y6Y8) | inactive: 0
29 | RPRD1A (UniProt Q96P16) | inactive: 0
30 | RPS19 (UniProt P39019) | inactive: 0
31 | RPAP1 (UniProt Q9BWH6) | inactive: 0
32 | SDCCAG1 (UniProt O60524) | inactive: 0
33 | RPS6KB1 (UniProt P23443) | inactive: 0
34 | RPS29 (UniProt P62273) | inactive: 0
35 | RPP40 (UniProt O75818) | inactive: 0
36 | SATB1 (UniProt Q01826) | inactive: 0
37 | RSRC1 (UniProt Q96IZ7) | inactive: 0
38 | RPS18 (UniProt P62269) | inactive: 0
39 | SCARB1 (UniProt Q8WTV0) | inactive: 0
40 | SERGEF (UniProt Q9UGK8) | inactive: 0
